Experimental data reported in article PMC9054839.
These are yes or no findings as the source states them, for the method shown. For some assays here: Binding seen in cells or lysates may run through a third protein. Some entries that bind do so weakly or less than the wild type.

The chains behind the UniProt entries cited, without tags or fusion partners. Where a name states a change or a piece, a line headed by the entry shows the natural chain unless it says otherwise. A line that says so, or that is headed by a name, gives the form on record, which may keep a tag or linker. Residues count along the entry.
UniProt P26039: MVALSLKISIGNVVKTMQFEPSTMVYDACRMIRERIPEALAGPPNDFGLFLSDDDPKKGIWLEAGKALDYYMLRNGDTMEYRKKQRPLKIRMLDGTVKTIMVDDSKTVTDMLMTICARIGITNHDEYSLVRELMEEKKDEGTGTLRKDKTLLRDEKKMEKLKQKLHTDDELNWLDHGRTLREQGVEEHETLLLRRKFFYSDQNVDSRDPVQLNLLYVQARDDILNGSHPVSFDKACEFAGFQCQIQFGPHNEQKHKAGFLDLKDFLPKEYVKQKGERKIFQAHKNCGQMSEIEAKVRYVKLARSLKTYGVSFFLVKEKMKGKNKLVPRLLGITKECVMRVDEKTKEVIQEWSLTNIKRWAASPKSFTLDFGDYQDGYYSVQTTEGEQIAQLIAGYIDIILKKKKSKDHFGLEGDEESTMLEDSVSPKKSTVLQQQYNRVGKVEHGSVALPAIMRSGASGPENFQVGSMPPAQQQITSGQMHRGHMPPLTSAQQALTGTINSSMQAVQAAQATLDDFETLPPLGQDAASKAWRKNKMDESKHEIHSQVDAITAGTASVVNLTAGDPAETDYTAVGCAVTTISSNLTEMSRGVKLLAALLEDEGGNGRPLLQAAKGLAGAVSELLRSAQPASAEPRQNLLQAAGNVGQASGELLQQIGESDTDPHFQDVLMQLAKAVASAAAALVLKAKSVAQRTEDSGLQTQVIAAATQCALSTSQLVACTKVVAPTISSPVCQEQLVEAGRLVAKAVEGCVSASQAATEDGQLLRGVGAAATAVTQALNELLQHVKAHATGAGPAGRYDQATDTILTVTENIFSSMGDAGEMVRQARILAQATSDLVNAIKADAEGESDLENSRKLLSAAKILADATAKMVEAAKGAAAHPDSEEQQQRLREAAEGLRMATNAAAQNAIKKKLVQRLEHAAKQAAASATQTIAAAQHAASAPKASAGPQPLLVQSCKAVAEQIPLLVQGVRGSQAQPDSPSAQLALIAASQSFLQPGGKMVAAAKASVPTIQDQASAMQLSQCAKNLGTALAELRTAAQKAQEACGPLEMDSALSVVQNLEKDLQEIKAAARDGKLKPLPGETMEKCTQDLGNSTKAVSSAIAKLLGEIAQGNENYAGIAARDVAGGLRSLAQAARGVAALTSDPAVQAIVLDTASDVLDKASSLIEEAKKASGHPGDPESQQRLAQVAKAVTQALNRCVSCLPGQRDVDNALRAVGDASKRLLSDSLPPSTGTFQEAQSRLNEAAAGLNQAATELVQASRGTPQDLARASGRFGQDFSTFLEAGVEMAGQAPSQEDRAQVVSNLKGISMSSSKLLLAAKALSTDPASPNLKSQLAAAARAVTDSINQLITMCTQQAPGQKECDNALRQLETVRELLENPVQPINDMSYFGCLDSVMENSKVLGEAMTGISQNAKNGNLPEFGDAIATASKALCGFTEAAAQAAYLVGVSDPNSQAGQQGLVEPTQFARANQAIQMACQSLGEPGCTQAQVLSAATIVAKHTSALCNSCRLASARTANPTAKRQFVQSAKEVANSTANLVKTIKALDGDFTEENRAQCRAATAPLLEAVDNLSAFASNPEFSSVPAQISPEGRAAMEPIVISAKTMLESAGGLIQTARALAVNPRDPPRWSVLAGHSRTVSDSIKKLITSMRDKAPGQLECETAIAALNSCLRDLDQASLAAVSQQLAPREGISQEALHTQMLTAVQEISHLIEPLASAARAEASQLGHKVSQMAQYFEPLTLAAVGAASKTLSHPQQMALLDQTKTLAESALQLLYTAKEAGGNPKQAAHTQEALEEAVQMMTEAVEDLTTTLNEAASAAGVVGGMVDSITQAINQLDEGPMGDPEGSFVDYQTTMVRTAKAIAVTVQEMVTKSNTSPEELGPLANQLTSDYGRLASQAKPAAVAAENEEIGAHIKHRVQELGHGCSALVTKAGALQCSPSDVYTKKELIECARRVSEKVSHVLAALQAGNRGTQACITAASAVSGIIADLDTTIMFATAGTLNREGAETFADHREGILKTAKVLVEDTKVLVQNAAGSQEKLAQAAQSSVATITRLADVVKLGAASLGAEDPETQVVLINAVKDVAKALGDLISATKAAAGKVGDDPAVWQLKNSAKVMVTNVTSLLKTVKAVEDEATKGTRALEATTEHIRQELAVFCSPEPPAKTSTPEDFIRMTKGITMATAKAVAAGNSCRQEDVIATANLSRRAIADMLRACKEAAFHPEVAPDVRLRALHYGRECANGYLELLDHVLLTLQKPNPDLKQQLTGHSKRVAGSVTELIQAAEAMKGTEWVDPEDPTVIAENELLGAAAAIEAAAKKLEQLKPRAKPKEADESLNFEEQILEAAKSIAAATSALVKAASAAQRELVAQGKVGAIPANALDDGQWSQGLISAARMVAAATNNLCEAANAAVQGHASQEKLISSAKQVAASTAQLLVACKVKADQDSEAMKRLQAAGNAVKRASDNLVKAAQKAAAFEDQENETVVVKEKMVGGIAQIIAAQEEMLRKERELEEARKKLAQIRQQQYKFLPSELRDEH
UniProt P05106, residues 742-788: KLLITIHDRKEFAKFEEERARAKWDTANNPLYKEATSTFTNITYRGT
GST-paxillin 161–605 (P49023, form named): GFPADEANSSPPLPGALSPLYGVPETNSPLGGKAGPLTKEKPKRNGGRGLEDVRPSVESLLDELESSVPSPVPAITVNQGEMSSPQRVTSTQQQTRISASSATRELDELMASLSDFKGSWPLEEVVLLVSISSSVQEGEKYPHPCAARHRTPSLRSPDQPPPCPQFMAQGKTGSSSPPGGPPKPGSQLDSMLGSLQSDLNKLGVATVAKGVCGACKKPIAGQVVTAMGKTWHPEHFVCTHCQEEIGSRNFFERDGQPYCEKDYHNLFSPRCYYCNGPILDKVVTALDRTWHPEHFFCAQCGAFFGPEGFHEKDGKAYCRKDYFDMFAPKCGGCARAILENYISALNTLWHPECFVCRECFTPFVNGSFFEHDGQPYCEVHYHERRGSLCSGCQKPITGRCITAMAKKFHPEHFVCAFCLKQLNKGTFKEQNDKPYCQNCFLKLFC
UniProt Q8VI36: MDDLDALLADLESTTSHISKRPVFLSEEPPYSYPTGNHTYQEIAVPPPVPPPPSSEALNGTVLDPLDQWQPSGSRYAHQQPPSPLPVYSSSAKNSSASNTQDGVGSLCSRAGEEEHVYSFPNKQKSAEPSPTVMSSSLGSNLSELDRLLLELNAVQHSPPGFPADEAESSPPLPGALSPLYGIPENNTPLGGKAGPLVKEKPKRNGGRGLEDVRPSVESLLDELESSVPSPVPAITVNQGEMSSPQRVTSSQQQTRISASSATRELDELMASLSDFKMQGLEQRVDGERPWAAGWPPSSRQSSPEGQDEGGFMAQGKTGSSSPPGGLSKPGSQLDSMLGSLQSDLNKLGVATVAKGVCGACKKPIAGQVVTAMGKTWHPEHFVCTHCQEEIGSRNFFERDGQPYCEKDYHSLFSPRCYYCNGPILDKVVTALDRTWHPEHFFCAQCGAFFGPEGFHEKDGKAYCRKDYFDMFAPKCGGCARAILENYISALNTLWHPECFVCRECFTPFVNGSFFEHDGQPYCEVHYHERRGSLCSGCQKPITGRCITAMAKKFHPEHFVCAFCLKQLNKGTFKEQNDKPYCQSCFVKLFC

Key:
[1] = biological target: C-terminally ypet-tagged full-length talin WT (mouse) (UniProt P26039); assay: co-IP; anti-GFP immunoprecipitation (µMACS GFP Isolation Kit) of ypet-talin from talin^1/2dKO fibroblasts re-adhered on fibronectin for 4 h, cross-linked with 0.5 mM DSP, lysed in MPER buffer; western blot
[2] = biological target: ypet-tagged talin-1 R11mut (T2126E/K2133E) (mouse) (UniProt P26039); assay: as above
[3] = biological target: ypet-tagged talin-1 R2 mut (A680E/K687E) (mouse) (UniProt P26039); assay: as above
[4] = biological target: GST-integrin beta3 cytoplasmic tail (UniProt P05106); assay: pull-down; GST-integrin-β3 CT on glutathione-Sepharose 4B beads, full-length talin as prey; 25 mM Tris-HCl pH 7.5, 150 mM NaCl, 0.5 mM TCEP, 0.01 or 0.1% NP40, 4 °C; both purified
[5] = biological target: GST-paxillin 161–605 (human) (UniProt P49023); assay: pull-down; GST-paxillin (full length or fragments) on glutathione-Sepharose 4B beads, talin or talin fragments as prey; 25 mM Tris-HCl pH 7.5, 150 mM NaCl, 0.5 mM TCEP, 0.01 or 0.1% NP40, 4 °C; western blot or Coomassie; both purified

Substance	binding [1]	binding [2]	binding [3]	binding [4]	binding [5]
paxillin (endogenous, fibroblasts) (from UniProt Q8VI36 1-591)	binds	binds	binds	–	–
constitutively activated full-length talin mutant tlnM3 (M319A, T1767L, E1770K) (from UniProt P26039 1-2541)	–	–	–	binds	no binding
